Taken from: PubChem BioAssay AID652243 (Drosophila RNAi Screening Center, 2013)
The screen tested about 24,000 reagents; shown is an unselected part of those that have a named target and a result. In the full data, 246 (1%) got an active call. 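Plates not normalised; calls are printed but the firefly/Renilla ratio behind them is not deposited; fold cut for lowering reported inconsistently.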 Raw values vary from plate to plate and are shown uncorrected. The numbers tell different reagents against one gene apart. Names joined by + are all predicted targets of the reagent. No sequences are given here. The record does not give: the amount of reagent.

Screen: 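Fly genes required for human androgen receptor driven transcription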 (primary screen)
System: Drosophila S2R+ cells
Knock-down reagent: long dsRNA against Drosophila genes
Timing: 72 h (48 h, then 24 h hormone)
Treatment: synthetic androgen R1881 at 10 nM for 24 h
Read-out: 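Firefly light from an androgen-responsive reporter and Renilla control light per well, raw and unnormalised, for each of two replicates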
Direction: firefly reporter light: higher = more light from androgen-responsive reporter; Renilla control light: higher = more constitutive control signal (cell number, transfection)
Hit rule: 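Hit when the log firefly-to-Renilla ratio dropped or increased by a fixed fold versus the mean of GFP or LacZ controls across duplicate plates; lowering cut given as 1.5 and as 3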
Meaning of the calls: active = hit: reporter lowered or raised; inactive = no hit

gene	reagent no.	firefly reporter light, replicate 1	firefly reporter light, replicate 2	Renilla control light, replicate 1	Renilla control light, replicate 2	outcome
Cp36	1	2.59e5	1.99e5	2.56e6	1.99e6	inactive
Cp36	2	2.04e5	2.66e5	4.31e5	5.94e5	inactive
CG4577	1	1.59e5	1.42e5	1.19e6	7.84e5	inactive
CG17075	1	9.62e5	9.12e5	4.39e6	1.99e6	inactive
CG17075	2	2.47e5	2.11e5	2.92e5	3.10e5	inactive
Lipt2	1	4.16e5	4.47e5	3.02e6	2.94e6	inactive
Lipt2	2	8.92e5	6.66e5	1.42e6	1.55e6	inactive
Nmdar2	1	3.34e5	3.29e5	4.95e6	3.86e6	inactive
Nmdar2	2	2.85e5	2.92e5	3.59e6	3.87e6	inactive
Nmdar2	3	3.25e5	3.26e5	3.06e6	2.16e6	inactive
CG18746	1	1.31e5	1.38e5	2.53e6	2.06e6	inactive
amon	1	1.66e5	1.35e5	2.33e5	3.26e5	inactive
amon	2	2.52e5	2.47e5	3.03e6	3.36e6	inactive
CG33791 + CG12105 + CG18170	1	9.16e5	1.18e6	1.29e6	1.49e6	inactive
CG4462	1	51436	59335	6.10e5	6.05e5	inactive
CG4462	2	5.00e5	9.89e5	7.56e5	9.36e5	inactive
Rab9Db + Rab9D + Rab9E	1	1.26e6	6.32e5	1.35e6	4.23e5	inactive
RpL35	1	1.12e5	1.74e5	1.34e6	1.70e6	inactive
hdm	1	2.65e5	3.09e5	2.50e6	2.83e6	inactive
Kr-h1	1	1.67e5	1.36e5	3.25e5	2.33e5	inactive
Kr-h1	2	6.63e5	8.56e5	1.41e6	1.46e6	inactive
Kr-h1	3	3.81e5	5.59e5	5.05e5	5.49e5	inactive
CG4716	1	5.65e5	6.68e5	6.53e5	8.83e5	inactive
CG4716	2	2.74e5	2.99e5	6.87e5	7.43e5	inactive
CG30350	1	3.16e5	3.52e5	1.89e6	2.12e6	inactive
CG7606	1	2.32e5	2.47e5	2.28e6	2.54e6	inactive
CG8065	1	2.00e5	1.52e5	1.63e6	1.43e6	inactive
CG34174	1	1.11e6	9.55e5	1.02e6	1.04e6	inactive
CG8066	1	2.10e5	2.16e5	2.46e6	1.98e6	inactive
CG8066	2	7.08e5	6.86e5	7.90e5	9.05e5	inactive
CG14427	1	3.17e5	3.36e5	2.31e6	2.08e6	inactive
CG14427	2	4.11e5	6.39e5	1.24e6	1.24e6	inactive
CG7084	1	1.04e5	89101	9.12e5	9.06e5	inactive
CG17560	1	2.15e5	1.86e5	3.48e6	2.65e6	inactive

Next part (5 carried over from the part before).
gene	reagent no.	firefly reporter light, replicate 1	firefly reporter light, replicate 2	Renilla control light, replicate 1	Renilla control light, replicate 2	outcome
CG8066	2	7.08e5	6.86e5	7.90e5	9.05e5	inactive
CG14427	1	3.17e5	3.36e5	2.31e6	2.08e6	inactive
CG14427	2	4.11e5	6.39e5	1.24e6	1.24e6	inactive
CG7084	1	1.04e5	89101	9.12e5	9.06e5	inactive
CG17560	1	2.15e5	1.86e5	3.48e6	2.65e6	inactive
mam	1	1.24e5	1.62e5	5.38e5	3.92e5	inactive
mam	2	6.51e5	7.54e5	8.12e5	1.23e6	inactive
mam	3	2.99e5	2.09e5	7.78e5	5.18e5	inactive
Tlk	1	3.94e5	5.43e5	2.14e6	2.04e6	inactive
Tlk	2	2.88e5	5.38e5	5.05e5	8.12e5	inactive
Tlk	3	6.48e5	1.36e6	5.91e5	1.05e6	inactive
Tlk	4	6.80e5	7.54e5	1.21e6	1.35e6	inactive
DCTN2-p50	1	9.07e5	9.33e5	1.13e6	9.81e5	inactive
CG43896	1	1.59e5	1.95e5	1.75e6	1.65e6	inactive
CG43896	2	2.60e5	1.61e5	1.79e6	1.41e6	inactive
CG43896	3	3.51e5	2.59e5	8.55e5	5.54e5	inactive
CG13558	1	2.75e5	3.60e5	1.78e6	1.43e6	inactive
CG13558	2	2.28e5	2.14e5	6.26e5	9.86e5	inactive
Fife	1	76941	67098	1.62e6	1.53e6	inactive
Fife	2	1.07e5	1.06e5	1.23e6	1.02e6	inactive
Fife	3	9.98e5	9.28e5	1.13e6	1.20e6	inactive
Fife	4	6.92e5	6.24e5	7.09e5	9.57e5	inactive
Bug22	1	1.82e5	1.21e5	1.64e6	1.01e6	inactive
E23	1	80747	90000	9.93e5	7.41e5	inactive
E23	2	6.83e5	4.71e5	6.42e5	5.65e5	inactive
Sos	1	2.76e5	2.02e5	1.16e6	1.28e6	inactive
Sos	2	2.07e5	1.81e5	4.77e5	3.04e5	inactive
Sos	3	5.84e5	5.81e5	1.40e6	1.28e6	inactive
CG16865	1	2.88e5	2.49e5	1.48e6	1.48e6	inactive
rad (retired record)	1	4.94e5	3.76e5	3.13e6	2.86e6	inactive
rad (retired record)	2	5.89e5	9.20e5	1.09e6	2.17e6	inactive
rad (retired record)	3	1.14e6	1.13e6	1.17e6	1.13e6	inactive
Ent2	1	8.51e5	8.78e5	1.74e6	1.15e6	inactive
Ent2	2	4.56e5	4.43e5	1.32e6	1.32e6	inactive
Tpc1	1	1.36e5	1.42e5	1.88e6	2.24e6	inactive
Tpc1	2	61141	1.07e5	5.30e5	7.64e5	inactive
Tpc1	3	5.26e5	3.99e5	9.23e5	9.23e5	inactive
Ada2b	1	1.19e5	1.18e5	2.19e6	1.97e6	inactive
CG6304	1	1.06e6	1.38e6	1.99e6	2.08e6	inactive
CG6304	2	2.86e5	2.47e5	6.30e5	8.09e5	inactive
Remo	1	3.36e5	3.21e5	3.98e6	4.40e6	inactive
CG33798	1	1.06e6	8.17e5	2.29e6	2.13e6	inactive
qua	1	1.54e5	2.05e5	1.86e6	2.24e6	inactive
CG9147	1	2.08e5	1.15e5	2.09e6	1.26e6	inactive
CG9147	2	7.06e5	4.32e5	2.35e6	1.67e6	inactive
